The values that follow come from article PMC8064503.

The chains behind the UniProt entries cited, without tags or fusion partners.
UniProt Q13526: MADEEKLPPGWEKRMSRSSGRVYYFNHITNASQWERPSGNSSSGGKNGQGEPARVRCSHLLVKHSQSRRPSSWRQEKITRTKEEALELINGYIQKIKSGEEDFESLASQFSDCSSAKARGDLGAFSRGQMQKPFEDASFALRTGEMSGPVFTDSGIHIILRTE
UniProt P25098: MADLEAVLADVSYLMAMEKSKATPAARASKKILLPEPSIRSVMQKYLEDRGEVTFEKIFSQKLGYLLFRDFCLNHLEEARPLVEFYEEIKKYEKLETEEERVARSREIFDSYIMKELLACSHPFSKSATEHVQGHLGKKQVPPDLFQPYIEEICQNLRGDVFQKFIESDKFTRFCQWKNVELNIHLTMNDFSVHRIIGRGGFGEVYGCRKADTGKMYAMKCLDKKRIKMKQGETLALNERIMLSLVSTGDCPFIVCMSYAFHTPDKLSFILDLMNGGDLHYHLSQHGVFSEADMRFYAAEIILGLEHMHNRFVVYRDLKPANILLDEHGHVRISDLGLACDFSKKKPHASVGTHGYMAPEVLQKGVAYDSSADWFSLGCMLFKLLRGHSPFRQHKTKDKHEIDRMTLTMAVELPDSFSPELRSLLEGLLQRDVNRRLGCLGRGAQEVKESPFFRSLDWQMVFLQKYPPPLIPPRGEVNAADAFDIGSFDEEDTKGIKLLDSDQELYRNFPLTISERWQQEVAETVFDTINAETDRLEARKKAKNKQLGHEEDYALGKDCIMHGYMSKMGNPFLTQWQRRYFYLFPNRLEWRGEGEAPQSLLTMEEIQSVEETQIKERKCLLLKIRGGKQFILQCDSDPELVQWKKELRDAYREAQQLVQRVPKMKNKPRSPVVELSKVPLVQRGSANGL

No constants are given. Whether binding was seen depends on the method and setting. In cells and extracts the contact can be indirect. Some binding calls cover weakened binding; strength is not graded here.

In this test the target is prolyl-isomerase Pin1 (endogenous, HeLa cells) (human (endogenous in HeLa)) (UniProt Q13526). Briefly: co-IP; Pin1 immunoprecipitated with anti-Pin1 polyclonal antibody from HeLa lysates (IP lysis buffer: 50 mM HEPES pH 7.5, 150 mM NaCl, 1% Triton, 10% glycerol); GRK2 detected by immunoblot and normalised to immunoprecipitated Pin1; cells asynchronous or G2-arrested with 5 uM etoposide for 18 h. In general terms: Immunoblotting shows a protein as a band on a membrane.

For the substance “G protein-coupled receptor kinase GRK2 (endogenous, parental HeLa cells) (from UniProt P25098 1-689)”, the binding result is “binds”.

“wild-type GRK2 stably overexpressed in HeLa cells (HeLa-WT5) (from UniProt P25098 1-689)”: the binding entry is listed as “binds”.
